Measurements as given in publication PMC10143822, “Structural Adaptation of the Single-Stranded DNA-Binding Protein C-Terminal to DNA Metabolizing Partners Guides Inhibitor Design” (Pharmaceutics, 2023).
No constants are given. Whether binding was seen depends on the method and setting. Some binding calls cover weakened binding; strength is not graded here.

T1: E. coli Exonuclease I (E. coli, UniProt P04995 1-471)
T1 construct: Exonuclease I of E. coli, from plasmid pET14b-E. coli Exonuclease I (Addgene 104552); The His tag was cut off with thrombin only for the purified protein; also called ExoI; Exol; source: E. coli BL21 (DE3) pLysS, purified (Ni-NTA, heparin); also in cell lysate (pull-down)
T1 sequence: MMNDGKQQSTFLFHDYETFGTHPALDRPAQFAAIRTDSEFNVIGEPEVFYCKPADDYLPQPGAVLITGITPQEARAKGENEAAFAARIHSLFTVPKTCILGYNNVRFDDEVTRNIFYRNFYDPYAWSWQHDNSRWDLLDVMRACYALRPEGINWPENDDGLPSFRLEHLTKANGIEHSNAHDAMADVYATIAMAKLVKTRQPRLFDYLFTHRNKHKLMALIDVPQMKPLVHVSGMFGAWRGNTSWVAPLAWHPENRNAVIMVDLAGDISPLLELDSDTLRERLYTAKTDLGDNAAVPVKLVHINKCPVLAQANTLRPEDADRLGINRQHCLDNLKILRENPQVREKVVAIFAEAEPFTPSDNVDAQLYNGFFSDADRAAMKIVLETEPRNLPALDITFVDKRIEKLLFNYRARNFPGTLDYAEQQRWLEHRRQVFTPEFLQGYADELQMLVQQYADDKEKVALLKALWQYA

T2: Escherichia coli RecO (Escherichia coli, UniProt P0A7H3 1-242)
T2 construct: RecO of Escherichia coli, synthetic gene in pET28a+ with a TEV site at the 5' end; The His tag was cut off with TEV protease only for the purified protein; source: E. coli Rosetta, purified (Ni-NTA, heparin); also in cell lysate (pull-down); not shown: His tag, N-terminal, cleaved
T2 sequence: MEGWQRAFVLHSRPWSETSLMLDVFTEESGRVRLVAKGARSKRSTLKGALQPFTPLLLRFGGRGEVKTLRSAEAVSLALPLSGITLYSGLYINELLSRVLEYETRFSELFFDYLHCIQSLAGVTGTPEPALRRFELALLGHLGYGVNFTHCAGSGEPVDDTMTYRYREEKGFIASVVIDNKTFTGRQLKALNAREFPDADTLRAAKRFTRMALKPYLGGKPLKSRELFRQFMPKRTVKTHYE

B1: mSSB-Ct 4CF3-Phe2 (unlabelled single mutant) (peptide)
peptide: DFDDDIPF
modifications: 4-CF3-Phe at position 2; N-terminus closed by acetylation
B2: mSSB-Ct 4CF3-Phe8 (unlabelled single mutant) (peptide)
peptide: DFDDDIPF
modifications: 4-CF3-Phe at position 8; N-terminus closed by acetylation
B3: E2-sSSB-Ct (Asp–4-CF3-Phe–Asp–Asp–Asp–Ile–Pro–4-CF3-Phe) (peptide)
peptide: DFDDDIPF
modifications: 4-CF3-Phe at positions 2 and 8; N-terminus closed by acetylation
B4: fluorescein-labeled wtSSB-Ct (peptide)
peptide: GGDFDDDIPF
modifications: 5,6-carboxyfluorescein on the N-terminus
B5: mSSB-Ct with Asp to Glu at position 1 (unlabelled single mutant) (peptide)
peptide: EFDDDIPF
modifications: N-terminus closed by acetylation
B6: mSSB-Ct with β^3-Asp at position 4 (unlabelled single mutant) (peptide)
peptide: DFDDDIPF
modifications: β^3-Asp at position 4; N-terminus closed by acetylation
B7: mSSB-Ct with NM-Asp at position 4 (unlabelled single mutant) (peptide)
peptide: DFDDDIPF
modifications: N-methyl-Asp (NM-Asp) at position 4; N-terminus closed by acetylation
B8: mSSB-Ct with 3-Cl-Phe at position 2 (unlabelled single mutant) (peptide)
peptide: DFDDDIPF
modifications: 3-Cl-Phe at position 2; N-terminus closed by acetylation
B9: mSSB-Ct with 4-F-proline at position 7 (unlabelled single mutant) (peptide)
peptide: DFDDDIPF
modifications: 4-F-proline at position 7; N-terminus closed by acetylation
B10: mSSB-Ct with 4F-Phe at position 8 (unlabelled single mutant) (peptide)
peptide: DFDDDIPF
modifications: 4-F-Phe at position 8; N-terminus closed by acetylation
B11: mSSB-Ct with 4-Cl-Phe at position 8 (unlabelled single mutant) (peptide)
peptide: DFDDDIPF
modifications: 4-Cl-Phe at position 8; N-terminus closed by acetylation

Each binder was assayed against T1, E. coli Exonuclease I (assay: 19F-NMR; 19F signals of peptides with 4-CF3-Phe residues, ExoI added in a 1:1 ratio; both purified).

binding, binds:
B1
B2
B3

These binders were tested against T1, E. coli Exonuclease I (assay: fluorescence polarisation; competition fluorescence anisotropy: 0.5 µM ExoI, 50 nM F-wtSSB tracer, 0–500 µM unlabeled peptide, 30 min at room temperature, read at 25 °C; 20 mM Tris-HCl pH 8.0, 100 mM NaCl, 1 mM MgCl2, 1 mM 2-mercaptoethanol, 10% glycerol; both purified).

binding, binds:
B4
B5
B6
B7
B8
B9
B10
B11

These binders were tested against T2, Escherichia coli RecO (assay: fluorescence polarisation; competition fluorescence anisotropy: 0.5 µM RecO, 50 nM F-wtSSB tracer, 0–500 µM unlabeled peptide, 30 min at room temperature, read at 25 °C; 20 mM Tris-HCl pH 8.0, 200 mM NaCl, 1 mM 2-mercaptoethanol, 10% glycerol, 0.01% Triton-X 100; both purified).

binding, binds:
B10
B11
